Source: ChEMBL document CHEMBL3988442, “University of Dundee, Small-Polar-MMV Screening Library” (2021).

Amino acid sequences for entries named in this document (tags omitted).
UniProt P9WFT3, whole entry: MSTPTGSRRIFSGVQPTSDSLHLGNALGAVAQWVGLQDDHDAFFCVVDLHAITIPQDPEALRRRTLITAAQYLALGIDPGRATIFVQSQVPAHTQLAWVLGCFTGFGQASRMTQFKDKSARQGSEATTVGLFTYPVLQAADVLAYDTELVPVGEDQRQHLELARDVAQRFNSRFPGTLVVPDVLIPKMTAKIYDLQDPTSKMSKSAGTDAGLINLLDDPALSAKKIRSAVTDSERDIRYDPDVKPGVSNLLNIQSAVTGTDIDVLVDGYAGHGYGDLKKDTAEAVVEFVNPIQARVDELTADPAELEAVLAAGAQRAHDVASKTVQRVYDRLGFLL
UniProt P9WPC5, whole entry: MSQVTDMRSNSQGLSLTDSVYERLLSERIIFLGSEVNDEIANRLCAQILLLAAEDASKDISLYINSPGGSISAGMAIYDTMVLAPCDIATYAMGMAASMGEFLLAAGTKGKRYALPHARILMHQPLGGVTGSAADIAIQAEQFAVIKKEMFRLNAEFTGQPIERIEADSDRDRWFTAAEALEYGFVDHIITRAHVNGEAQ
UniProt P9WPC3, whole entry partner: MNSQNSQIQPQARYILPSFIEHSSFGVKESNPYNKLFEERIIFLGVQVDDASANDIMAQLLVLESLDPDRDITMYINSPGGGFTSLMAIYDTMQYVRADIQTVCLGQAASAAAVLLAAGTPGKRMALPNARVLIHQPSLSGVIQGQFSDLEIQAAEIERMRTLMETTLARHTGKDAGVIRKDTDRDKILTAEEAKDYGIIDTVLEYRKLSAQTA
UniProt P9WNZ1, whole entry: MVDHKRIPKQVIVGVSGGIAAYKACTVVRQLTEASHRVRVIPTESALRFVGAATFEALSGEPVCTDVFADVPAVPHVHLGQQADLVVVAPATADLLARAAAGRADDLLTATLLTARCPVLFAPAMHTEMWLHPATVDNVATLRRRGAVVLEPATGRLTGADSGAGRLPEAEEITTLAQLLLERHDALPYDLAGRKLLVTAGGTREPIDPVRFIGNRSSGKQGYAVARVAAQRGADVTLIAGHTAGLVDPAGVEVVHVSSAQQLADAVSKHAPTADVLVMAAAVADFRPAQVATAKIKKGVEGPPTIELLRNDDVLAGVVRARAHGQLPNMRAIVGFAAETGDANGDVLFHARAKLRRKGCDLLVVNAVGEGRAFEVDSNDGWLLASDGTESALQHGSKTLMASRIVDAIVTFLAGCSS
UniProt I6X8D2, whole entry: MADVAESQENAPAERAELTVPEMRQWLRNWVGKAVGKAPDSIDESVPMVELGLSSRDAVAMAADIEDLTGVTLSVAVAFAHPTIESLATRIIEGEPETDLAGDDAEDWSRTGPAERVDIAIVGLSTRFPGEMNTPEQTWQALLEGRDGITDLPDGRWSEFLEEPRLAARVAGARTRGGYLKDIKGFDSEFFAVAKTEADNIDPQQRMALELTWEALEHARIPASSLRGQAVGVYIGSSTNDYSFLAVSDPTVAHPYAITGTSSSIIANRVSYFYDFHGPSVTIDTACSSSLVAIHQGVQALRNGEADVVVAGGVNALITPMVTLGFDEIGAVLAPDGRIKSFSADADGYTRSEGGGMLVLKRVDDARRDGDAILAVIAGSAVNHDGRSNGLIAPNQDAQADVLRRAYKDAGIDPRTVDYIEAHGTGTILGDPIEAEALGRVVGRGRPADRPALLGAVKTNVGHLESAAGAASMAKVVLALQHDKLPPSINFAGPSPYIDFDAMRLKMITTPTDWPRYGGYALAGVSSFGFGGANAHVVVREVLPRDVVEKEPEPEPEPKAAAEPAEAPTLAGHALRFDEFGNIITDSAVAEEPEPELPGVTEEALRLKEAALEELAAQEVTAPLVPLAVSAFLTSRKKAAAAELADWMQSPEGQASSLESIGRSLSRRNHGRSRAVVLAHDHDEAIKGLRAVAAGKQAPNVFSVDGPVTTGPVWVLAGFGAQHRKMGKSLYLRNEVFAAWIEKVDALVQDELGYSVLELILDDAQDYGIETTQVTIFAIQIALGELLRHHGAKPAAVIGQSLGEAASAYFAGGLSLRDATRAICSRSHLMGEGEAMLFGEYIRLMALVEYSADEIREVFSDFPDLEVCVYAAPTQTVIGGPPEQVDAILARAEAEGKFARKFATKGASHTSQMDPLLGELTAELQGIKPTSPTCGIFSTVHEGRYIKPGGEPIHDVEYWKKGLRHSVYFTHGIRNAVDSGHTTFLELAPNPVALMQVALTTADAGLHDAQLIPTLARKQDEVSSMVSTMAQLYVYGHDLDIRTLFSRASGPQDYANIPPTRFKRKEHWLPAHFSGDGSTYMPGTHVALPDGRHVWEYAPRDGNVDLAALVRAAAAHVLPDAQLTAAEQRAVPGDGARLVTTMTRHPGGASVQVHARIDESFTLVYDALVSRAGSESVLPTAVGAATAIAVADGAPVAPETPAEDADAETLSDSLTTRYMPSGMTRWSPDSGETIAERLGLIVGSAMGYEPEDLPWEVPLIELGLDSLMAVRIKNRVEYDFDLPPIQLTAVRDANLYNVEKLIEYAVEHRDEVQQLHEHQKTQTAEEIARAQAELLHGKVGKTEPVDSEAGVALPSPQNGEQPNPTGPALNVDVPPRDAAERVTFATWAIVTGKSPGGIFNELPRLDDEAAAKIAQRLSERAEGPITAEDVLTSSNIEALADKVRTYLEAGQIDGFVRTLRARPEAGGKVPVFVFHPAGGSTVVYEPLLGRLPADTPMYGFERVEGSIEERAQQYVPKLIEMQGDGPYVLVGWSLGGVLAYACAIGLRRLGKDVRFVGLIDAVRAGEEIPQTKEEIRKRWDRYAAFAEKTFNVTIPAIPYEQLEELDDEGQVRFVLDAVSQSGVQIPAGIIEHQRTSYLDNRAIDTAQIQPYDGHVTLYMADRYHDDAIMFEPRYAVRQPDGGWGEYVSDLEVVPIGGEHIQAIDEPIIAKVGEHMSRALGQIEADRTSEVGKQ

The filed quantity is “Percent Effect” (%). How 0% and 100% were set is not recorded. Most values in the screen are low, and negative values occur. Compounds were drawn at random from those tested, without regard to their results. A dash means the value is not listed here; it may have been measured.

A: 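Tryptophan-tRNA ligase, Mycobacterium tuberculosis (UniProt P9WFT3). Enzyme assay of tryptophanyl-tRNA synthetase; the read-out is not stated. Compounds at 10 µM. Direction is not recorded; retested compounds ran higher, which suggests that high means inhibition. Of about 65,000 compounds tested this way, about 64 (0.098%) reached 50% or more in at least one test.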
B: 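Assay of Toxoplasma gondii numbers, read through their beta-galactosidase reporter with a colour substrate. Tested at 10 µM. The record gives no direction; the compounds picked for IC50 retests had high values, so higher reads as fewer parasites. Of about 67,000 compounds tested this way, about 260 (0.38%) reached 50% or more in at least one test.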
C: 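Protease assay of ClpP1P2, read by the AMC dye that it sets free. Target: ClpP1P2, Mycobacterium tuberculosis (UniProt P9WPC5 and UniProt P9WPC3). Tested at 50 µM. Higher reads as stronger inhibition, judged from the few compounds that gave an IC50. Most other retested compounds had strongly negative values. About 69,000 compounds were tested under these conditions; 0.015% (about 10) showed 50% or more at least once.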
D: 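Enzyme assay of CoaBC with a phosphate dye (Biomol Green) read at 650 nm. Target: Coenzyme A biosynthesis protein CoaBC, Mycobacterium tuberculosis (UniProt P9WNZ1). Compounds at 30 µM. Higher reads as stronger inhibition, judged from the few compounds that gave an IC50. Most strong results did not repeat in a second test. Size under these conditions: about 67,000 compounds, about 40 of them at 50% or above in at least one test.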
E: 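Enzyme assay of the thioesterase domain of polyketide synthase 13; the read-out is not stated. Target: Polyketide synthase Pks13, Mycobacterium tuberculosis (UniProt I6X8D2). Tested at 30 µM. Higher reads as stronger inhibition (inferred from which compounds were picked for retests). Size under these conditions: about 67,000 compounds, about 300 of them at 50% or above in at least one test.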

structure	A	B	C	D	E
Cc1ccc(CC(=O)N2Cc3nccn3CC(Cn3cccn3)C2)cc1 (stereo not drawn)	1.891	-3.96	-8.814	8.387	-23.42
CCOc1ccc(C(=O)N2CCCC2c2cnn(C)c2)cn1 (stereo not drawn)	14.31	1.602	-34.43	2.427	-14.05
CN(c1ncccc1CNS(=O)(=O)N1CCOCC1)C1CCCCC1	-9.506	2.382	-11.05	-1.225	-15.87
Cc1nn(C)c(Cl)c1C1CCCN1C(=O)c1ccc(N(C)C)nn1 (stereo not drawn)	-0.3974	9.618	5.919	5.488	5.661
COc1ccc2nc(C3CC3)cc(C(=O)NCCc3nnc[nH]3)c2c1	1.917	2.05	-14.16	-	-11.89
COc1cccc(CNCC2CN(C)CCO2)c1 (stereo not drawn)	-6.498	-20.59	-6.014	13.82	-5.071
CN(C)C(=O)[C@@H]1CCO[C@@H]2CCN(c3ncccn3)C[C@H]21	1.766	-	-24.92	4.839	-21.15
CC(C)(C)C(=O)N1CCN(Cn2nccc2-c2cccnc2)CC1	-2.794	1.81	-7.145	-25.22	-35.03
O=C(O)c1ccccc1-c1ccc(CN2CCC(CO)C2)cc1 (stereo not drawn)	-8.104	9.165	-12.09	-4.126	11.44
O=C(NCc1cccnc1)[C@@H]1C[C@H]2[C@H](CCN2c2ncc(F)cn2)O1	0.3791	-	12.58	1.854	-7.938
O=C(NCCN1CCOCC1)c1ccn(-c2ccccc2F)n1	-2.233	3.047	0.4963	4.785	-6.764
Cc1occc1C(=O)N1CC[C@H]2C[C@@H](c3nnc(C4CC4)o3)O[C@@H]2C1	-	-	-4.95	1.975	-0.5815
Cn1cccc1C(=O)N1CCC2(CC1)CCN2S(C)(=O)=O	1.623	1.652	21.79	4.684	-6.906
CS(=O)(=O)N1C[C@H]2C[C@H](C(=O)N3CCOCC3)[C@@H](C1)O2	-5.959	-	-12.14	3.99	-28.4
CCOC(=O)[C@]12CCCN(Cc3ccco3)C[C@H]1CN(CCN(C)C)C2	3.418	-	-14.43	3.169	-5.458
Cc1cc(CN(C)C(=O)NC2CCN(c3ncccn3)CC2)no1	-3.704	-6.123	-22.57	2.915	-11.83
O=C(O)C(F)(F)F.[H][C@]12CCN(Cc3ccccc3)CC[C@@]1([H])S(=O)(=O)NC2	-	8.441	-	-	-
Cc1cnc(C(=O)N2CCC3(CCN3Cc3ccc(F)cc3)C2)cn1.O=C(O)C(F)(F)F (stereo not drawn)	-	4.479	-	-	-
CCS(=O)(=O)N1CCCn2cnc(COc3cccnc3)c2C1.O=C(O)C(F)(F)F	-	9.455	-	-	-
O=C(O)C(F)(F)F.[H][C@@]12CCN(S(C)(=O)=O)[C@]1([H])CC[C@@H](C(=O)NCCc1ccncc1)O2	-	-6.517	-	-	-
N#Cc1cnc2ccccc2c1N1CCC(C(=O)O)CC1	1.961	17.55	1.579	-0.9685	-8.131
CC(C)(C)c1cn2nc(N3CCCC3Cn3cncn3)sc2n1 (stereo not drawn)	0.9651	-26.09	12.79	4.922	-6.096
CN1C[C@H]2CNC[C@@]2(C(=O)N2CCN(c3ncccc3C#N)CC2)C1	-7.407	-	-5.199	-27.92	0.4337
COc1cccc(-c2noc3c2CN(c2ncnc4c2CCC4)CC3)c1	-5.925	4.643	3.283	7.258	-34.12
CC1CCCCN1CCNC(=O)c1ccn(-c2ccccc2)n1 (stereo not drawn)	6.073	34.11	-23.01	-7.567	38.98
CCc1n[nH]c(C2CN(C(=O)c3cnns3)CCO2)n1 (stereo not drawn)	-3.541	-	-9.314	4.113	-13.74
CC(=O)c1cccc(NC(=O)Cn2cc(I)cn2)c1	-0.3178	0.4525	-3.479	-0.4049	-37.94
COc1ccccc1CNC(=O)CN(C)C(C)c1ccncn1 (stereo not drawn)	0.9517	-13.2	-2.337	3.165	-8.927
Cc1ccc(C(=O)N2CC[C@@]3(O)CCN(C(=O)N(C)C)C[C@H]3C2)cc1Cl	0.5711	-	-0.6329	-2.978	-13.64
[H][C@@]12CS(=O)(=O)C[C@]1([H])N(Cc1nccs1)CCN2CCOC	-	-8.471	-	-	-
N#Cc1ccc(N2CCC3(CC2)CC(Oc2cccnc2)CO3)cc1.O=C(O)C(F)(F)F (stereo not drawn)	-	28.47	-	-	-
CCN(C(=O)c1ccccc1I)C1CC(=O)NC1=O (stereo not drawn)	-0.1032	1.997	10.57	-	-41.27
Cc1nn(C)c(C)c1C1CCCN1Cc1nc(N)c2ccccc2n1 (stereo not drawn)	-0.1704	23.87	-28.79	-5.63	-22.43
COCCn1cc(C(=O)N2CCCC2c2cc(C)on2)c2ccccc21 (stereo not drawn)	-0.243	-0.8246	9.72	-2.778	11.11
Cc1ccsc1[C@@H]1CCN(C(=O)CCCn2cncn2)C[C@H]1O	-6.988	-1.386	9.039	7.015	-17.88
CCNC(=O)NC1CCN(c2ccc(S(=O)(=O)CC)cc2)CC1	0.000007	-0.6787	-8.936	-0.8739	-54.52
Cc1cc(S(=O)(=O)N2CCC(N3CCC(O)C3)CC2)c(Cl)cc1Cl (stereo not drawn)	-0.5146	-4.366	0.2841	-32.35	-19.44
CCc1nc2ccccc2n1C(CC)C(=O)N(C)Cc1noc(C)n1 (stereo not drawn)	-1.782	12.11	-1.128	5.471	4.213
CCOc1ccccc1C(=O)NS(=O)(=O)c1ccc2c(c1)OCCCO2	1.462	-2.323	8.016	-2.504	-9.424
Cc1ccc2oc(SCC(=O)NC(C)(C)C)nc2n1	-1.977	2.365	-12.55	1.772	-7.931
CCN(Cc1cc(=O)n2cc(Br)ccc2n1)C1CC1	1.613	-8.482	3.088	-6.21	-8.231
[H][C@@]12CNC[C@]1([H])CN(Cc1c(C)noc1C)C2	-	-6.143	-	-	-
CCC1(CO)CCCN(C(=O)c2cc(COc3cccc(F)c3)[nH]n2)C1 (stereo not drawn)	3.871	-9.982	1.13	4.377	-12.47
Cc1ccc(N2CCC3(CCN(Cc4ccccn4)CC3)CC2)nn1	-8.476	-1.596	8.155	1.018	-13.75
O=C(c1ccc2c(c1)OCO2)N1CCCC(n2ccnc2)C1 (stereo not drawn)	5.879	-4.895	11.81	4.453	-52.38
CN1CCC(c2cccc(NCc3nccn3C)n2)CC1	18.68	17.82	-11.19	5.583	-8.109
CCCC(C)CN1CCC(n2cc(CCCO)nn2)CC1 (stereo not drawn)	-6.635	-4.943	0.0944	-3.376	-5.292
CN1CCCC(CCC(=O)NCCc2nnc(N)s2)C1 (stereo not drawn)	1.877	-6.409	-2.74	-2.982	-9.485
COc1cc(CNC(c2ccccc2)c2nccn2C)cc(OC)c1 (stereo not drawn)	-4.838	-10.37	-37.26	9.838	-13.67
CC(C)n1c(=O)nc2n1C(=O)N(c1ccc(F)cc1)C2	-2.436	-0.6536	-12.57	8.232	-34.66
COc1c(C2CCCN2c2ncnc3c2cnn3C)c(C)nn1C (stereo not drawn)	-0.289	2.934	-0.1049	1.304	-8.091
Cc1noc([C@H]2CC[C@@H]3[C@@H](CCN3S(=O)(=O)C3CC3)O2)n1	-1.521	-	16.47	4.762	45.62
Cc1cc(C(=O)N2CCCC(c3nncn3C)C2)no1 (stereo not drawn)	0.288	4.348	21.04	1.699	-7.232
c1ccc(COC[C@]23COC[C@H]2CN(c2ncccn2)C3)nc1	-0.9752	-	-19.22	-1.11	-9.614
Cc1csc(CNc2cnn(C(C)C)c2)n1	-0.2366	-12.1	-12.05	4.141	6.303
CC(=O)N1CCC(Nc2cc(F)ccc2OCC2CCCO2)CC1 (stereo not drawn)	9.717	2.827	8.476	2.151	-14.17
CC(C)c1nc(CN2CCN(C(=O)CC3CCCCC3)CC2)no1	-2.656	13.4	-6.134	4.971	7.513
CNS(=O)(=O)CC(=O)NC(C)Cc1ccc(-c2ccccc2)cc1 (stereo not drawn)	-2.445	7.994	-10.12	3.639	-32.73
O=C(O)C(F)(F)F.[H][C@@]12CCN(CCc3ccccc3)C[C@@]1([H])O[C@@H](C(=O)NC1CC1)C2	-	0.4992	-	-	-
CC(=O)NCCNc1nc(-c2ccccn2)nc2c1c(C)nn2C	-4.296	1.665	-10.35	-3.226	17.21
CC(C)Cc1noc(CN(C)C2CCS(=O)(=O)C2)n1 (stereo not drawn)	3.865	9.226	-7.183	4.294	0.9116
c1cncc(OC[C@]23COC[C@H]2CN(C2CCC2)C3)c1	-	-	-2.155	4	2.882

Once more, the final 8:

structure	A	B	C	D	E
Cc1csc(CNc2cnn(C(C)C)c2)n1	-0.2366	-12.1	-12.05	4.141	6.303
CC(=O)N1CCC(Nc2cc(F)ccc2OCC2CCCO2)CC1 (stereo not drawn)	9.717	2.827	8.476	2.151	-14.17
CC(C)c1nc(CN2CCN(C(=O)CC3CCCCC3)CC2)no1	-2.656	13.4	-6.134	4.971	7.513
CNS(=O)(=O)CC(=O)NC(C)Cc1ccc(-c2ccccc2)cc1 (stereo not drawn)	-2.445	7.994	-10.12	3.639	-32.73
O=C(O)C(F)(F)F.[H][C@@]12CCN(CCc3ccccc3)C[C@@]1([H])O[C@@H](C(=O)NC1CC1)C2	-	0.4992	-	-	-
CC(=O)NCCNc1nc(-c2ccccn2)nc2c1c(C)nn2C	-4.296	1.665	-10.35	-3.226	17.21
CC(C)Cc1noc(CN(C)C2CCS(=O)(=O)C2)n1 (stereo not drawn)	3.865	9.226	-7.183	4.294	0.9116
c1cncc(OC[C@]23COC[C@H]2CN(C2CCC2)C3)c1	-	-	-2.155	4	2.882